Laboratory results taken from the supplement of paper PMC10849652.
The list shows a part of the results.

The chains behind the UniProt entries cited, without tags or fusion partners. Where a name states a change or a piece, a line headed by the entry shows the natural chain unless it says otherwise.
UniProt Q96B01: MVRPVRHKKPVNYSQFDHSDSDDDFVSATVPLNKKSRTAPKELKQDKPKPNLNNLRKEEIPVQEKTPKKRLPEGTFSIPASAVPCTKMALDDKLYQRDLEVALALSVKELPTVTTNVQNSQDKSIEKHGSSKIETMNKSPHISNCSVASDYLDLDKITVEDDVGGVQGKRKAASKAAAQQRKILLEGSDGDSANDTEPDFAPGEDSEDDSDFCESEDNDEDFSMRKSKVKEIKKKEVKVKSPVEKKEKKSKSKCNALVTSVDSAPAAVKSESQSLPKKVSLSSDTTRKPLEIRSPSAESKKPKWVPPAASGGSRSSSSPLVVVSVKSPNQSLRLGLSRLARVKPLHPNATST
UniProt Q6WKZ4: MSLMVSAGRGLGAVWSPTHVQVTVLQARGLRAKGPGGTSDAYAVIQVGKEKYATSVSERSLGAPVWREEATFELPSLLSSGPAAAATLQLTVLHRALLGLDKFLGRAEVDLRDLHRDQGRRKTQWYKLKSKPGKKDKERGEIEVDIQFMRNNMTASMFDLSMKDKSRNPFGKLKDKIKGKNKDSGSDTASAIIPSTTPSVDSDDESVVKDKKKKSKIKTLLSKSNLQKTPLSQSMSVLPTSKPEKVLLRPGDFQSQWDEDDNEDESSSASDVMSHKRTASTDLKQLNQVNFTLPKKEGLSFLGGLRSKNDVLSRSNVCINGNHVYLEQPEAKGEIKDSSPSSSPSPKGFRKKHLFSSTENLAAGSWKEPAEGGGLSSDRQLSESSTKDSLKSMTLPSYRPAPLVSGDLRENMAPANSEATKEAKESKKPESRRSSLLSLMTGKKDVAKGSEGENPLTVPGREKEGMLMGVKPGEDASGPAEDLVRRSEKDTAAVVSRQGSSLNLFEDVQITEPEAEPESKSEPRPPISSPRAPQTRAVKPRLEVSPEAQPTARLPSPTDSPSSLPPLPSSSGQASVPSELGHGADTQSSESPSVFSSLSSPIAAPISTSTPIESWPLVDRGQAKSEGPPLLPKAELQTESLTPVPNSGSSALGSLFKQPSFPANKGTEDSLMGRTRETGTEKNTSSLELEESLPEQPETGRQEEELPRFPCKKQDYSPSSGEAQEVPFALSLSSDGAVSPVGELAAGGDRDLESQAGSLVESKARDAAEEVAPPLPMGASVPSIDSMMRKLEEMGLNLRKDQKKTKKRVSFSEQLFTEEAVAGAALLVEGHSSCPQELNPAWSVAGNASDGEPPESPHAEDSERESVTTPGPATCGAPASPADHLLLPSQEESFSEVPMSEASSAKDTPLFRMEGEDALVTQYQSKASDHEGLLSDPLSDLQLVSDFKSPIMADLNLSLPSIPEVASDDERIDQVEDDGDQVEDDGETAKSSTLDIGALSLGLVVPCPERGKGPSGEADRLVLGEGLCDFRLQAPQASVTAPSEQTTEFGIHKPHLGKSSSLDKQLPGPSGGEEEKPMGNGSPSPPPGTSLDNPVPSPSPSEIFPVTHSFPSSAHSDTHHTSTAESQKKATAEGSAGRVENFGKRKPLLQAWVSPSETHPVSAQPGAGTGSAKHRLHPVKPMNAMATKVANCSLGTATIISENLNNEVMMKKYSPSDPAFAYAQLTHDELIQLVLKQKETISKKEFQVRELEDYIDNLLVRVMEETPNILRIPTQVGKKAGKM
UniProt P61225: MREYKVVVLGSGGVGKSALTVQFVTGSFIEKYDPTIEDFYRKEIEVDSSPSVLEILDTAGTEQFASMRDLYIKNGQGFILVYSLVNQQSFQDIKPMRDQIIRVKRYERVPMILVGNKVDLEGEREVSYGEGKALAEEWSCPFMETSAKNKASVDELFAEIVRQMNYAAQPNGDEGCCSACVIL
UniProt Q96PU8: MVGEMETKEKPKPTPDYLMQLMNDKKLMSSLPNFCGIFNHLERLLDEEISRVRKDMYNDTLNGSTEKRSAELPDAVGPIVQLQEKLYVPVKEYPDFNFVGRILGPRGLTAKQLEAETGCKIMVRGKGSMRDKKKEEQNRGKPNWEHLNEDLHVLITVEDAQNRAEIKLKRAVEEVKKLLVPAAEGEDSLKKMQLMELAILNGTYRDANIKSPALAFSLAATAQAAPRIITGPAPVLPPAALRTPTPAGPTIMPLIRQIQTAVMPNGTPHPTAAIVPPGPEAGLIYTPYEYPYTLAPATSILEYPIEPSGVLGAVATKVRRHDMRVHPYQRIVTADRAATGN
UniProt O60671: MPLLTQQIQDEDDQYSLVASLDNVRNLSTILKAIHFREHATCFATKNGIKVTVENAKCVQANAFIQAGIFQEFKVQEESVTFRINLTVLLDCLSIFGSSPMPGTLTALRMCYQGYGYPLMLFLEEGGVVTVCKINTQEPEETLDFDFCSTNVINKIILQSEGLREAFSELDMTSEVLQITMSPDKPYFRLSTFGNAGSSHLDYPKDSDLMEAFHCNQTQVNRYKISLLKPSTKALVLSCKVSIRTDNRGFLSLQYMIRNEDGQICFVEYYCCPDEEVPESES
UniProt P61106, whole entry, looked up: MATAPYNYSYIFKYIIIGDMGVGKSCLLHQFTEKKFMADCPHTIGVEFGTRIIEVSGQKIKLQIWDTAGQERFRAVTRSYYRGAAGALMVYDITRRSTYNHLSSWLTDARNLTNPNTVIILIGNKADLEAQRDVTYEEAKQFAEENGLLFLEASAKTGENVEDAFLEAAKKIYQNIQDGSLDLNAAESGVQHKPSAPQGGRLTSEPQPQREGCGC
UniProt P20337: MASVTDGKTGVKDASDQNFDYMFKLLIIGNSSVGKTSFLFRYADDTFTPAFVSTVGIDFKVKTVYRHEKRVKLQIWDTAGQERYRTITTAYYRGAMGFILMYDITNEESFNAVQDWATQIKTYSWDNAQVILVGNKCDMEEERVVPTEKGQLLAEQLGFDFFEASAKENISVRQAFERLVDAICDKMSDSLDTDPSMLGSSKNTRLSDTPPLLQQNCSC
UniProt Q86YS6: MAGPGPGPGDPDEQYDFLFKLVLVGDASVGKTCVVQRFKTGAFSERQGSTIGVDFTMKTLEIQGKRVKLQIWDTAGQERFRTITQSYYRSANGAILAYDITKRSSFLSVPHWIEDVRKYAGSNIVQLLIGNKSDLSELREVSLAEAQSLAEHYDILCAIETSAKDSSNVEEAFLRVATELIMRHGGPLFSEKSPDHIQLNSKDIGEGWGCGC
UniProt O00391: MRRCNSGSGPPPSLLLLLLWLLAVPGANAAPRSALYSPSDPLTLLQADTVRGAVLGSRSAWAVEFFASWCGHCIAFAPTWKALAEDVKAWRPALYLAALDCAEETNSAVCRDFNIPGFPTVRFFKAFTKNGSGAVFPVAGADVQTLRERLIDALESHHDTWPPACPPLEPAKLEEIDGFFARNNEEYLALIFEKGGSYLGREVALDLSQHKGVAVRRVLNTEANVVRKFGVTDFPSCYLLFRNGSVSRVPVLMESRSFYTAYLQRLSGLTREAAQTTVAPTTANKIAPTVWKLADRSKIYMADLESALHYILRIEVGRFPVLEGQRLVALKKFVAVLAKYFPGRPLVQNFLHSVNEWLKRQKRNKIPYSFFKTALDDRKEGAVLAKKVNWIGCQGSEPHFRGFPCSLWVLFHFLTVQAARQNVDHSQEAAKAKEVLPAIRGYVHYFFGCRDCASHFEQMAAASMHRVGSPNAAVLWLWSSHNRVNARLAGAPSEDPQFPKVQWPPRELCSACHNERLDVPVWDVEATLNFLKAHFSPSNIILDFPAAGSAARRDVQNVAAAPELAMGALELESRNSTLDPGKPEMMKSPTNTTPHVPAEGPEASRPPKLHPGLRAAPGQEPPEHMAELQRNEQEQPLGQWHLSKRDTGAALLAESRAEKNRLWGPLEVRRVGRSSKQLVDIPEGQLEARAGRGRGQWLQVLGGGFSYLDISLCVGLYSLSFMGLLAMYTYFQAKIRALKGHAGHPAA
UniProt P52306: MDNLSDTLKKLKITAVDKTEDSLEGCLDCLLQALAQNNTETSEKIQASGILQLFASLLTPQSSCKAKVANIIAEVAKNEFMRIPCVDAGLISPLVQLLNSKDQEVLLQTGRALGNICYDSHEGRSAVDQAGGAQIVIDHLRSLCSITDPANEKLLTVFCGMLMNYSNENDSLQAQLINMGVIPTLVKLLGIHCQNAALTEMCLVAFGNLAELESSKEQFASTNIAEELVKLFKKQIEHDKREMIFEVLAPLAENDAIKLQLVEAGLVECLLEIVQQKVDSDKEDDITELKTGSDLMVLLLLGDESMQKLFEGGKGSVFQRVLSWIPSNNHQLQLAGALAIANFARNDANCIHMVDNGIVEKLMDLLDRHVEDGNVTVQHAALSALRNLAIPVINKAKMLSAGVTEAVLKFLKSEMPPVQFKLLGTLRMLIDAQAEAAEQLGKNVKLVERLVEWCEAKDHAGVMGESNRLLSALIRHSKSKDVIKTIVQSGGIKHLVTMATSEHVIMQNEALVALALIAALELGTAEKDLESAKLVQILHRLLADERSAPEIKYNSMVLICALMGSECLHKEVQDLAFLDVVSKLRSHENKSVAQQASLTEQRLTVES
UniProt P54725: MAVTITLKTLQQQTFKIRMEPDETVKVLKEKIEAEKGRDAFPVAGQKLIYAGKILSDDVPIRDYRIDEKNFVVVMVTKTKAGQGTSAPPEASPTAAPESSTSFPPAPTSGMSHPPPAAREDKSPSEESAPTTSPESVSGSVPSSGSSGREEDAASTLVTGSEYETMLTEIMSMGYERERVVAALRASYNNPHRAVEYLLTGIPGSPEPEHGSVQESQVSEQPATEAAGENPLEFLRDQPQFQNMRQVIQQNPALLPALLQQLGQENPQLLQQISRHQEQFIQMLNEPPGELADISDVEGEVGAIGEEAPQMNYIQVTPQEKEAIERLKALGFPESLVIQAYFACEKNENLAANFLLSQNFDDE
UniProt P32322: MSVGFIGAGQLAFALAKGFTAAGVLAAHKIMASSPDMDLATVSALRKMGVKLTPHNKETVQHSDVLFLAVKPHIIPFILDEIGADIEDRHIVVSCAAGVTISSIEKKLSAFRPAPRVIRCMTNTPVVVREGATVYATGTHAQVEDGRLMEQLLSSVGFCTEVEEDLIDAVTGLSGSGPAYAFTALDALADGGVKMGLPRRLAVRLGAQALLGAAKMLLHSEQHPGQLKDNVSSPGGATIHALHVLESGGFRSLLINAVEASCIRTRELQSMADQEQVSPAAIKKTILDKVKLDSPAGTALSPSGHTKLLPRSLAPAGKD
UniProt Q96S21: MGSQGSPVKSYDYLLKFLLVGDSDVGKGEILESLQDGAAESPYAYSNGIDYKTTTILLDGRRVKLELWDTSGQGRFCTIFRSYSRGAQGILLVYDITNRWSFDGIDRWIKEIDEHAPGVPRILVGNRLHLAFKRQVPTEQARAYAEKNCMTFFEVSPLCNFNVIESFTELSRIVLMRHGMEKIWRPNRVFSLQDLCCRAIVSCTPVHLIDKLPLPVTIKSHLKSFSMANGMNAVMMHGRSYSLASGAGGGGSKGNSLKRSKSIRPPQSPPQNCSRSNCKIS
UniProt O14966: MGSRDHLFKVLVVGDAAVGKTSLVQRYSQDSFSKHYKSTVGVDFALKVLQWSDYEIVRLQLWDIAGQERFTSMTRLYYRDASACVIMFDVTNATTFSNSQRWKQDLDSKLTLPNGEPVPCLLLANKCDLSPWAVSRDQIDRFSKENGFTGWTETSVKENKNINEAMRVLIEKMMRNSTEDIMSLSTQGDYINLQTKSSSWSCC
UniProt O00194: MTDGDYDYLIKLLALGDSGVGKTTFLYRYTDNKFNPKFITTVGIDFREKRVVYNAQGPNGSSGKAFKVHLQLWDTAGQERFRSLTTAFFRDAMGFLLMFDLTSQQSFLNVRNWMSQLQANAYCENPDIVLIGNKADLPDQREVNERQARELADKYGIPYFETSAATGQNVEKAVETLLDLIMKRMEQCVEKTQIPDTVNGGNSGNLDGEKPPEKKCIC
UniProt O75771: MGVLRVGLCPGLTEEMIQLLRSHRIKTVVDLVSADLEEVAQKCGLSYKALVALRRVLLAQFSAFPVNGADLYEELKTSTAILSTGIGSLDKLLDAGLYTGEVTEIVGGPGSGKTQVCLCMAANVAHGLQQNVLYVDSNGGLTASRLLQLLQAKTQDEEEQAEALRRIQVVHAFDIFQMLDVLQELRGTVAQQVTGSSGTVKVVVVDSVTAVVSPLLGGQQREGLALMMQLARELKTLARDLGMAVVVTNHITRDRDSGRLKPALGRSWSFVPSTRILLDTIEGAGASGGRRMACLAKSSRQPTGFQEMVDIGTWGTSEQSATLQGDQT
UniProt Q15771: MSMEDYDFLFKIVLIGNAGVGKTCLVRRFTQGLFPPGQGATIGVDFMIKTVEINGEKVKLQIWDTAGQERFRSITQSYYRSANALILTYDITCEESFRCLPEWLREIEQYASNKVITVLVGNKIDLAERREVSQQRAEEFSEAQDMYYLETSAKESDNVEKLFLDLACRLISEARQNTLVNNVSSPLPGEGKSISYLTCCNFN
UniProt O95716: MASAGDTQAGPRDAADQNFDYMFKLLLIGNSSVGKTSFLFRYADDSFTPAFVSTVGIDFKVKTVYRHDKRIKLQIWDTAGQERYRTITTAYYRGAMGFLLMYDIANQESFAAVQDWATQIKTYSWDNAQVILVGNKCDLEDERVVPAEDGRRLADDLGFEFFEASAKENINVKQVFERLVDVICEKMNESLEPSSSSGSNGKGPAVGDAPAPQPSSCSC

Experiments:
Test in all cases: log2 fold change, soluble protein after heating vs DMSO (PISA); higher = thermal stabilisation; K562 lysate, 10 uM; active = over 0.2 and 3.5 SD of the protein, either way, in both replicates (recomputed)
nilotinib = compound: Cc1cn(-c2cc(NC(=O)c3ccc(C)c(Nc4nccc(-c5cccnc5)n4)c3)cc(C(F)(F)F)c2)cn1 [nilotinib]
Method in brief: (§1)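 Log-two fold change in thermal stability relative to solvent controls is reported from duplicates. For each sample, crude K562 extract from dounce-homogenised pellets in PBS pH 7.4 with 1 mM MgCl2, at 1 mg/mL protein, was treated with 10 μM compound for 30 min. Aliquots heated for 3 min across 48°C-58°C were pooled, brought to 0.5% NP-40 at 4°C and cleared at 21,000xg for 90 min. The supernatant was quantified by TMTpro 16plex LC-MS/MS with channel sums equalised.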

[1] = compound: Cc1nc(Nc2n[nH]c3c2CN(C(=O)N[C@H](CN(C)C)c2ccccc2)C3(C)C)c2sccc2n1
Method in brief: as §1

dasatinib = compound: Cc1nc(Nc2ncc(C(=O)Nc3c(C)cccc3Cl)s2)cc(N2CCN(CCO)CC2)n1 [dasatinib]
Method in brief: as §1

[2] = compound: Cc1ncc(-c2ccnc(Nc3ccc(S(C)(=O)=O)cc3)n2)n1C(C)C
Method in brief: as §1

[3] = compound: Cn1cc(-c2ccc3c(c2)CCN3C(=O)Cc2cccc(C(F)(F)F)c2)c2c(N)ncnc21
Method in brief: as §1

quisinostat = compound: Cn1cc(CNCC2CCN(c3ncc(C(=O)NO)cn3)CC2)c2ccccc21 [quisinostat]
Method in brief: as §1

tipifarnib = compound: Cn1cncc1[C@@](N)(c1ccc(Cl)cc1)c1ccc2c(c1)c(-c1cccc(Cl)c1)cc(=O)n2C [tipifarnib]
Method in brief: as §1

[4] = compound: NC(=O)Nc1cc(-c2cccc(F)c2)sc1C(=O)N[C@H]1CCCNC1
Method in brief: as §1

[5] = compound: NC(=O)c1cnc(N[C@@H]2CCCC[C@@H]2N)nc1Nc1cccc(-n2nccn2)c1
Method in brief: as §1

[6] = compound: NC1(c2ccc(-c3nc4ccn5c(=O)[nH]nc5c4cc3-c3ccccc3)cc2)CCC1
Method in brief: as §1

Measured: log2 fold change

RAD51AP1 (UniProt Q96B01)
inactive: nilotinib 0.031 | [1] 0.007 | dasatinib -0.028 | [2] 0.035 | [3] -0.029 | quisinostat -0.144 | tipifarnib 0.004 | [4] 0.022 | [5] 0.003 | [6] -0.035

RAB3IL1 (UniProt Q8TBN0)
inactive: nilotinib -0.025 | [1] -0.026 | dasatinib -0.048 | [2] 0.041 | [3] 0.017 | quisinostat -0.002 | tipifarnib 0.037 | [4] 0.004 | [5] 0.017 | [6] 0.033

RABGAP1 (UniProt Q9Y3P9)
inactive: nilotinib 0.014 | [1] -0.005 | dasatinib -0.022 | [2] 0.046 | [3] -0.003 | quisinostat -0.017 | tipifarnib -0.013 | [4] 0.015 | [5] 0.025 | [6] 0

RAB11FIP1 (UniProt Q6WKZ4)
inactive: nilotinib 0.006 | [1] 0.019 | dasatinib 0.001 | [2] -0.003 | [3] -0.008 | quisinostat -0.005 | tipifarnib 0.003 | [4] -0.032 | [5] -0.002 | [6] -0.026

RANBP17 (UniProt Q9H2T7)
inactive: nilotinib 0.137 | [1] 0.133 | dasatinib 0.009 | [2] 0.118 | [3] -0.101 | quisinostat -0.422 | tipifarnib 0.093 | [4] -0.059 | [5] 0.012 | [6] 0.019

RAP2B (UniProt P61225)
inactive: nilotinib -0.009 | [1] -0.02 | dasatinib 0.058 | [2] -0.019 | [3] 0.009 | quisinostat 0.076 | tipifarnib 0.038 | [4] -0.048 | [5] 0.013 | [6] -0.024

QKI (UniProt Q96PU8)
inactive: nilotinib -0.053 | [1] 0.006 | dasatinib -0.02 | [2] 0.062 | [3] -0.038 | quisinostat -0.013 | tipifarnib -0.024 | [4] 0.055 | [5] -0.005 | [6] -0.008

RAD1 (UniProt O60671)
inactive: nilotinib 0.029 | [1] -0.011 | dasatinib 0.008 | [2] 0.02 | [3] 0.02 | quisinostat -0.074 | tipifarnib -0.04 | [4] -0.013 | [5] -0.002 | [6] 0.051

RAB14 (UniProt P61106)
inactive: nilotinib -0.014 | [1] -0.01 | dasatinib -0.058 | [2] -0.004 | [3] -0.03 | quisinostat -0.031 | tipifarnib -0.078 | [4] 0.013 | [5] 0 | [6] -0.03

RAB3B (UniProt P20337)
inactive: quisinostat 0.004 | [4] -0.007

RALGAPA2 (UniProt Q2PPJ7)
inactive: quisinostat 0.017 | [4] -0.06 | [5] -0.044

RAB43 (UniProt Q86YS6)
inactive: nilotinib 0.12 | [1] 0.07 | dasatinib 0.072 | [2] -0.041 | [3] 0.049 | tipifarnib -0.115 | [6] -0.037

QSOX1 (UniProt O00391)
inactive: dasatinib 0.242 | [3] -0.214 | quisinostat -0.079 | [4] -0.078 | [6] -0.048

PYCARD isoform 2 (UniProt Q9ULZ3)
inactive: quisinostat -0.122 | [4] 0.033 | [5] 0.104 | [6] 0.217

RAB33B (UniProt Q9H082)
inactive: nilotinib 0.012 | [1] -0.025 | dasatinib -0.076 | [2] 0 | [3] 0.009 | tipifarnib -0.061 | [5] -0.049 | [6] -0.058

RAP1GDS1 isoform 4 (UniProt P52306)
inactive: [5] -0.053

RAD23A isoform 3 (UniProt P54725)
inactive: nilotinib -0.019 | [1] -0.194 | [2] -0.036 | tipifarnib 0.225 | [5] -0.099 | [6] -0.178

RALGAPB isoform 3 (UniProt Q86X10)
inactive: dasatinib 0.052 | [3] -0.034

RAI1 (UniProt Q7Z5J4)
inactive: quisinostat 0.129 | [4] -0.198

QARS1, A0A0U1RR66
inactive: [5] -0.049

PYCR1 isoform 3 (UniProt P32322)
inactive: nilotinib 0.031 | [1] 0.001 | [2] -0.021 | [3] -0.009 | quisinostat 0.031 | tipifarnib 0.056 | [4] -0.022 | [5] 0.017 | [6] 0.051

R3HDM2 (UniProt B5MCU0)
inactive: quisinostat 0.03 | [4] 0.086 | [6] -0.257

RAB5IF isoform 5 (UniProt Q9BUV8)
inactive: nilotinib -0.033 | [1] -0.033 | dasatinib -0.108 | [2] -0.003 | [3] 0.06 | tipifarnib -0.189 | [5] 0.026 | [6] -0.096

NA (UniProt Q4G0T1)
inactive: dasatinib 0.054 | [3] 0.095 | quisinostat 0.034 | [4] 0.054 | [6] 0.062

RAB40C (UniProt Q96S21)
inactive: nilotinib -0.081 | [1] 0.083 | [2] -0.033 | quisinostat -0.059 | tipifarnib -0.067 | [4] 0.058 | [5] 0.026 | [6] 0.022

RAB11FIP4 (UniProt Q86YS3)
inactive: nilotinib -0.098 | [1] -0.001 | dasatinib 0.142 | [2] -0.003 | [3] -0.106 | tipifarnib -0.196 | [5] -0.07 | [6] -0.004

Looked up one by one from the entries so far, four records:
NA (UniProt Q4G0T1)
inactive: dasatinib 0.054 | [3] 0.095 | quisinostat 0.034 | [4] 0.054 | [6] 0.062

RAB5IF isoform 5 (UniProt Q9BUV8)
inactive: nilotinib -0.033 | [1] -0.033 | dasatinib -0.108 | [2] -0.003 | [3] 0.06 | tipifarnib -0.189 | [5] 0.026 | [6] -0.096

RAB40C (UniProt Q96S21)
inactive: nilotinib -0.081 | [1] 0.083 | [2] -0.033 | quisinostat -0.059 | tipifarnib -0.067 | [4] 0.058 | [5] 0.026 | [6] 0.022

QARS1, A0A0U1RR66
inactive: [5] -0.049

More results follow.

R3HDM4 (UniProt Q96D70)
inactive: nilotinib 0 | [1] 0.089 | dasatinib 0.041 | [2] -0.012 | [3] 0.033 | quisinostat -0.005 | tipifarnib -0.114 | [4] 0.033 | [6] -0.048

RAB29 (UniProt O14966)
inactive: dasatinib 0.011 | [3] -0.046 | [6] -0.141

RAD54L (UniProt Q92698)
inactive: nilotinib -0.004 | [1] 0.078 | dasatinib -0.212 | [2] 0.037 | [3] -0.054 | tipifarnib 0.007 | [5] 0.015 | [6] -0.073

RAPGEF4 (UniProt Q8WZA2)
inactive: dasatinib -0.092 | [3] -0.061 | quisinostat -0.491 | [4] 0.16 | [5] 0.064 | [6] -0.192

RACK1 (UniProt D6RF23)
inactive: nilotinib -0.322 | [1] -0.128 | [2] -0.031 | tipifarnib 0.096

RAB27B (UniProt O00194)
inactive: nilotinib -0.007 | [1] -0.06 | dasatinib 0.075 | [2] 0.045 | [3] -0.179 | tipifarnib 0.003 | [5] -0.045 | [6] 0.138

R3HDM1 isoform 3 (UniProt Q15032)
inactive: dasatinib -0.07 | [3] 0.023 | quisinostat -0.115 | [4] -0.011 | [5] -0.094 | [6] -0.035

RAB28 (UniProt P51157)
inactive: dasatinib 0.025 | [3] 0.02 | quisinostat 0.001 | [4] 0.086 | [5] 0.242 | [6] 0.053

RAB11FIP3 isoform 3 (UniProt O75154)
inactive: dasatinib -0.275 | [3] 0.164 | [5] 0.105 | [6] 0.046

RANGRF (UniProt Q9HD47)
inactive: dasatinib 0.082 | [3] 0.223 | quisinostat 0.012 | [4] -0.018 | [5] -0.03 | [6] 0.147

RALGPS2 (UniProt Q86X27)
inactive: nilotinib 0.109 | [1] 0.015 | [2] 0.211 | quisinostat -0.279 | tipifarnib -0.056 | [4] 0.147 | [6] -0.153

RAD51D (UniProt O75771)
inactive: nilotinib 0.026 | [1] 0.047 | dasatinib 0.044 | [2] 0.068 | [3] 0.004 | tipifarnib -0.055 | [5] 0.076 | [6] -0.026

RAC3 (UniProt P60763)
inactive: quisinostat -0.06 | [4] 0.007 | [6] 0.013

RAB30 (UniProt Q15771)
inactive: dasatinib 0.025 | [3] 0.018 | quisinostat 0.03 | [4] -0.01 | [6] -0.095

RAB3D (UniProt O95716)
inactive: dasatinib 0.108 | [3] -0.106 | quisinostat 0.055 | [4] -0.065 | [5] -0.034 | [6] -0.11

RAB11FIP5, A0A1B0GTL5
inactive: quisinostat 0.15 | [4] -0.313 | [5] -0.066 | [6] -0.016
